This is one part of the list. Most values lie at the level of the controls, where differences are scatter.
Compound: Cc1nc(Nc2ncc(C(=O)Nc3c(C)cccc3Cl)s2)cc(N2CCN(CCO)CC2)n1 [dasatinib]
Experiment: log2 fold change of tryptic peptide abundance, ligand vs vehicle (limited proteolysis) (log2 ratio); higher = more trypsin-susceptible (destabilized)
Settings: ligand concentration: 5 uM; sample: K562 cleared lysate

Amino acid sequences for entries named in this document (tags omitted). A change or cut given only in a name is not applied to a line headed by its entry.
UniProt Q9BZ29: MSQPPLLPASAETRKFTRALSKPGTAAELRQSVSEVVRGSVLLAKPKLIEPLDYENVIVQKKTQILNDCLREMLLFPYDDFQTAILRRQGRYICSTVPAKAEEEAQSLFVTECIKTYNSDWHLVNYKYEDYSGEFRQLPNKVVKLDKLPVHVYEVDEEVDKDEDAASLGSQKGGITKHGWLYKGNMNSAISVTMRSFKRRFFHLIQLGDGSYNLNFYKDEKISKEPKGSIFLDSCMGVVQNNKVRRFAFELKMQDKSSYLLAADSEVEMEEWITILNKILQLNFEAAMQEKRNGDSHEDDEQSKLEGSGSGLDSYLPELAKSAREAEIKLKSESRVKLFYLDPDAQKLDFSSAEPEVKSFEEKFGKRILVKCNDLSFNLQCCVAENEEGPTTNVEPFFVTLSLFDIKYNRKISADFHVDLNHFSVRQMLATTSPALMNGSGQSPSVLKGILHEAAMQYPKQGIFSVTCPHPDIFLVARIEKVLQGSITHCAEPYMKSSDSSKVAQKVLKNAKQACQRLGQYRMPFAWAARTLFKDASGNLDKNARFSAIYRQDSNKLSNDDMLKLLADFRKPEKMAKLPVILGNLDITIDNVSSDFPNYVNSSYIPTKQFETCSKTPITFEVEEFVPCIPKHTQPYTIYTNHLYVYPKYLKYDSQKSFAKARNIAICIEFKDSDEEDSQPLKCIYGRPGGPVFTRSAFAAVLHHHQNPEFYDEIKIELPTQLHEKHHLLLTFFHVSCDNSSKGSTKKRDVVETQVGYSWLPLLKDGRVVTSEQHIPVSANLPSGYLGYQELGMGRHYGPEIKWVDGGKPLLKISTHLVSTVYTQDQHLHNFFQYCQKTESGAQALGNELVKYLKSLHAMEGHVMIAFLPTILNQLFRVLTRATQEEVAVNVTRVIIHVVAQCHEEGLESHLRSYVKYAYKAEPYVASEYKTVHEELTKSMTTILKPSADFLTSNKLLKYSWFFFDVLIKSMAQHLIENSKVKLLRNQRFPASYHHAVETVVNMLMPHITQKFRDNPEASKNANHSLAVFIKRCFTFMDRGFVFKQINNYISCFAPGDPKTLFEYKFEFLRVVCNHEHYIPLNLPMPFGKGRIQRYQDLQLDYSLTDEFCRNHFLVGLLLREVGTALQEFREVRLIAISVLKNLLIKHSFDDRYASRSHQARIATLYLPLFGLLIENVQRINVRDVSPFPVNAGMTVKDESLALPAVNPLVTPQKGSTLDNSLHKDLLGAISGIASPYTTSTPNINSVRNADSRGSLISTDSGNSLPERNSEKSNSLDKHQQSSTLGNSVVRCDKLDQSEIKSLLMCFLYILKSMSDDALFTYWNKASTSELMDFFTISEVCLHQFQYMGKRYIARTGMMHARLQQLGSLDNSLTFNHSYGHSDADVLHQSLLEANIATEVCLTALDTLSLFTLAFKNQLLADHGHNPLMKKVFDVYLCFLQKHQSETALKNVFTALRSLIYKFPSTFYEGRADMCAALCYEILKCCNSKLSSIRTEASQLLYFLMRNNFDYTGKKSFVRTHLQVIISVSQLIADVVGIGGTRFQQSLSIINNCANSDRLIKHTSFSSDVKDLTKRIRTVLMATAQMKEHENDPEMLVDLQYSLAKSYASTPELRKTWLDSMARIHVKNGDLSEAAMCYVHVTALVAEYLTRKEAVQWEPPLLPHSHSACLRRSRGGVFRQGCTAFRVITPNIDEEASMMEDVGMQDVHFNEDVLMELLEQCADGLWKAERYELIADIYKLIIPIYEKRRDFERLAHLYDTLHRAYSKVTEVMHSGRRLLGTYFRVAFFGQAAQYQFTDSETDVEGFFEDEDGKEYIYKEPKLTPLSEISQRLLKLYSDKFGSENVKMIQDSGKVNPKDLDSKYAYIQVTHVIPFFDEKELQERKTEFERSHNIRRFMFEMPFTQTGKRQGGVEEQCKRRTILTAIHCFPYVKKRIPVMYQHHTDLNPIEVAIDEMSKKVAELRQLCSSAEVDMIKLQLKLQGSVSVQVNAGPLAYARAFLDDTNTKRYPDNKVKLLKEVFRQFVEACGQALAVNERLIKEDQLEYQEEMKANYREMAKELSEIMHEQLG
UniProt Q9BYG4: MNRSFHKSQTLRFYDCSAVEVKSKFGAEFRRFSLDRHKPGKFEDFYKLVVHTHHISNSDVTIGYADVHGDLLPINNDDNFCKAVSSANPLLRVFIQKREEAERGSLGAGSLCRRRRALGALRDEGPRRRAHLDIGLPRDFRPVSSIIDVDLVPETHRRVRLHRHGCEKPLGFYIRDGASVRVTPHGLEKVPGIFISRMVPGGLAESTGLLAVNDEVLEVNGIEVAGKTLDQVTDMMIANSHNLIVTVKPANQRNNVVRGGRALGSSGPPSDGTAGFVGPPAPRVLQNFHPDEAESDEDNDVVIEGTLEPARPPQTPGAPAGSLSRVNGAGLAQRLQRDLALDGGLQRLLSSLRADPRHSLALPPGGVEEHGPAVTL
UniProt Q9BWH2: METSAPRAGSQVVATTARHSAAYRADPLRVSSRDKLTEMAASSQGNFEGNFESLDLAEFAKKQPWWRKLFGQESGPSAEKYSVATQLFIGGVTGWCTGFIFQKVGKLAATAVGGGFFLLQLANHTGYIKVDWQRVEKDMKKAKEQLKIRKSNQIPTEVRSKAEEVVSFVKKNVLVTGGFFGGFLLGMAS
UniProt Q9BUW7: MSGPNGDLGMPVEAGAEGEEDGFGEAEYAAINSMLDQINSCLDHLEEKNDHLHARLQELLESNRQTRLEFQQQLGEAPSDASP
UniProt Q9BWT7: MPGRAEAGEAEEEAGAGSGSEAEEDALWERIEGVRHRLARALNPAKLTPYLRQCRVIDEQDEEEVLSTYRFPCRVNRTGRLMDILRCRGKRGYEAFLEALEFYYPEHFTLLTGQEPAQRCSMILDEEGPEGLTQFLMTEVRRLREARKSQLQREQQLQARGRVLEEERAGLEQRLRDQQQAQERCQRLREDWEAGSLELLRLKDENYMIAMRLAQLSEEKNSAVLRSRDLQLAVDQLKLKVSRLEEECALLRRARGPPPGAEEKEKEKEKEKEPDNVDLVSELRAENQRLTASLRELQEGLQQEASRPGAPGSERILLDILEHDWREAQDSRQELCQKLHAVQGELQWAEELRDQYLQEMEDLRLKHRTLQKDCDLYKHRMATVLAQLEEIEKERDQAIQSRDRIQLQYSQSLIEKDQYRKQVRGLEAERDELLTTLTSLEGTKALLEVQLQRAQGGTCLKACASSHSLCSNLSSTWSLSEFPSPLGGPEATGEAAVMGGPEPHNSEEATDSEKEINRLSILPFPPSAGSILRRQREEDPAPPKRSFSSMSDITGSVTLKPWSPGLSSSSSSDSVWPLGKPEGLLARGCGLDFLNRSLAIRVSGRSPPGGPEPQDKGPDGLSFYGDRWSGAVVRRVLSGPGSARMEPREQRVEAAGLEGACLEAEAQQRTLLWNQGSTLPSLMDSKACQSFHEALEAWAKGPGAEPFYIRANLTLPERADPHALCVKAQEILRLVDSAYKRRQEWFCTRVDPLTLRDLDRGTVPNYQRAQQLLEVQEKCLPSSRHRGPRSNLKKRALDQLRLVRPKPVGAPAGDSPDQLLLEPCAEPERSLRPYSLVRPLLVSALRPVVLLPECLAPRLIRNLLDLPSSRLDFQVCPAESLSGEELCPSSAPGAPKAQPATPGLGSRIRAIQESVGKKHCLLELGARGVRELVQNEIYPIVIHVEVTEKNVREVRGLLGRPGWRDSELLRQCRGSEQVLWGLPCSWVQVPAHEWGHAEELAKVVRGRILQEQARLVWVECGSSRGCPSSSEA
UniProt Q9BZD4: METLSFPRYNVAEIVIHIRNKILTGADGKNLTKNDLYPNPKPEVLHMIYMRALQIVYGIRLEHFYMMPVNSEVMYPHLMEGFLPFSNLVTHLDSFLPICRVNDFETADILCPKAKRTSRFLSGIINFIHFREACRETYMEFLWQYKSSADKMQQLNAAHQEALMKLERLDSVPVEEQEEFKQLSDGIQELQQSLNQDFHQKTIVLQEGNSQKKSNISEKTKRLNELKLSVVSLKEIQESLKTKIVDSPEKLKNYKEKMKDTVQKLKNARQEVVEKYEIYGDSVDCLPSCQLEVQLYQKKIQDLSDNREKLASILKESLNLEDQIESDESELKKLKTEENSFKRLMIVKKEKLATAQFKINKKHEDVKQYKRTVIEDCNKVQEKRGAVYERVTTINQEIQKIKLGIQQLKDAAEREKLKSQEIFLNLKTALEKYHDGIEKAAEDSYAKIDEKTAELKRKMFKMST
UniProt Q9BV40: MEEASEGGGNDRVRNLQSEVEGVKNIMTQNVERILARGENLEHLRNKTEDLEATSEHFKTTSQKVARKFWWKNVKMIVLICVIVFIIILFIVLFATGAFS

Target	log2 fold change
DOCK9 (peptide sequence: LFYLDPDAQK, peptide start residue: 338) (UniProt Q9BZ29)	0.337
UniProt Q9BYG4 (peptide sequence: VTPHGLEKVPGIFISR, peptide start residue: 181)	-0.0474
FUNDC2 (peptide sequence: SKAEEVVSFVKK, peptide start residue: 160) (UniProt Q9BWH2)	-0.121
C9orf16 (peptide sequence: NDHLHAR, peptide start residue: 49) (UniProt Q9BUW7)	-0.25
UniProt Q9BWT7 (peptide sequence: ALLEVQLQR, peptide start residue: 445)	0.0197
NUF2 (peptide sequence: YNVAEIVIHIR, peptide start residue: 9) (UniProt Q9BZD4)	0.202
ITPA (peptide sequence: KIVFVTGNAK, peptide start residue: 9) (UniProt Q9BY32)	-0.333
VAMP8 (peptide sequence: TEDLEATSEHFK, peptide start residue: 48) (UniProt Q9BV40)	-0.133
